Measurements reported in PubChem BioAssay AID588499 (NMMLSC, 2011).
The whole screen tested about 360,000 compounds, of which about 610 (0.17%) were called active. The inconclusive results got no clear call from the source; some entries with a clear call stand among them for comparison. No stated cut-off is given here; in the data, active means inhibition above about 30%; inconclusive means no clear call, values can overlap the other calls; inactive means below that.

Test system: Botulinum neurotoxin type A light chain protease (Clostridium botulinum A str. ATCC 3502)
Assay: blockers of BoNT/A LC substrate cleavage – biochemical, flow cytometry, MLPCN library, primary screen (AID 588499); further: plate controls were buffer without enzyme for full effect and enzyme alone for no effect
Settings: multiplex microsphere protease substrate cleavage, at 10 µM, hits give high values

SMILES	inhibition
CCN(CC(=O)NCc1cccs1)C(=O)CCC(=O)c1ccc(F)cc1	inactive: 0.1%
Cc1ccc(NC(=O)CN2CCN(C(=O)c3ccco3)CC2)cc1S(=O)(=O)N(C)C	inactive: -0.4%
COc1ccc(/C=N/n2c(-c3ccc(C)cc3)n[nH]c2=S)cc1OC	inconclusive: 4.7%
C=CCOc1cccc(CNc2cccc(C(=O)O)c2)c1	inactive: 0%
COC(=O)C(C)Oc1ccc2c(-c3cccc([N+](=O)[O-])c3)cc(=O)oc2c1 (stereo unspecified)	inconclusive: 3.7%
CCn1c(NC(=O)c2cccs2)c(-c2cccs2)c(=O)c2ccccc21	inconclusive: 4.7%
OC1CN=C2CCCc3c2n(c2ccc(Cl)cc32)C1 (stereo unspecified)	active: 54.3%
Cc1ccc(NC(=O)NNC(=O)c2cccs2)cc1	inactive: -0.2%
COc1ccc(CCN2C(=NC(=O)C(C)C)SC3CS(=O)(=O)CC32)cc1 (stereo unspecified)	inconclusive: 18.5%
CCN(CC(=O)Nc1ccccc1C(F)(F)F)C(=O)C1=COCCO1	inconclusive: -2.8%
Cc1cc(C)n(-c2nnc(NC34CC5CC(CC(C5)C3)C4)nn2)n1	active: 51.7%
Cc1cc(NCCCN2CCOCC2)n2ncc(-c3ccc(Cl)cc3)c2n1	inconclusive: -2.9%
CCOC(=O)c1cc(-c2ccc(OC)cc2)nc2c1c(C)nn2CCC#N	inconclusive: 0.2%
COc1cc(OC)cc(C(=O)Nc2ccc(S(=O)(=O)N(C)C)cc2)c1	inactive: 0.6%
Cc1nc2c(C(=O)O)cnn2c(C)c1Cc1ccccc1F	inconclusive: 12.4%
Cc1ccc(S(=O)(=O)N2CCOCC2)cc1C(=O)Nc1c(C)n(C)n(-c2ccccc2)c1=O	inconclusive: -0.6%
COc1ccc(OC)c(C2C(C#N)=C(N)Oc3c2c(C)nn3-c2cccc(Cl)c2)c1 (stereo unspecified)	inconclusive: 3.6%
CCn1cc(C(=O)N2CC(C)CC(C)C2)c(=O)c2cc(S(=O)(=O)N3CCOCC3)ccc21 (stereo unspecified)	inactive: -2.4%
CCC(C)C(NC(=O)c1ccccc1NC(=O)c1ccco1)C(=O)O (stereo unspecified)	inconclusive: -8.6%
CCN(CC)CCn1c(=N)n(CCOc2ccccc2)c2ccccc21	inconclusive: -5.7%
Cc1cccc(-n2c(=O)c(C#N)cc3c(=O)n4ccccc4nc32)c1	inconclusive: 3.4%
O=C(c1cc2ncc(Br)cn2n1)N1CCOCC1	inconclusive: -3.1%
Cc1ccc(C(=O)Nc2ccc(O)cc2C(=O)O)cc1C	inconclusive: 27.1%

Ordered by formula weight (largest number first): part of the list above
SMILES	inhibition
COc1ccc(OC)c(C2C(C#N)=C(N)Oc3c2c(C)nn3-c2cccc(Cl)c2)c1 (stereo unspecified)	inconclusive: 3.6%
COc1ccc(CCN2C(=NC(=O)C(C)C)SC3CS(=O)(=O)CC32)cc1 (stereo unspecified)	inconclusive: 18.5%
Cc1cc(C)n(-c2nnc(NC34CC5CC(CC(C5)C3)C4)nn2)n1	active: 51.7%

Remaining list, next part.

SMILES	inhibition
Cc1ccc(S(=O)(=O)Cc2ccc(C(=O)NCc3ccc4c(c3)OCO4)o2)cc1	inconclusive: 1.1%
O=C(Cn1c(=O)oc2cc(S(=O)(=O)N3CCCC3)ccc21)NCc1ccc(F)cc1	inactive: -0.4%
COc1ccccc1N1CCN(Cc2ccc(OC)c3ccccc23)CC1	inconclusive: -3.3%
O=C(CCSc1nnc2scc(-c3ccccc3)n12)Nc1nc(-c2ccccc2)ns1	inconclusive: 1.1%
CCN(CC)S(=O)(=O)c1ccc(C(=O)OCCN2C(=O)c3cccc4c(N5CCOCC5)ccc(c34)C2=O)cc1	active: 35.4%
Cc1cccn2c(=O)nc(SCC(=O)Nc3cccc4ccccc34)nc12	inconclusive: -6.7%
NNC(=O)CSc1cccc2cccnc12	inactive: 1%
CN1CCN(Cc2nc3ccccc3c(=O)[nH]2)CC1	inconclusive: 4.4%
CCOC(=O)C1C(=O)N(C(=O)c2ccc(OC)cc2)CC1c1ccccc1 (stereo unspecified)	inconclusive: 7%
COc1ccccc1N1CCN(C(=O)c2ccc3nc(-c4ccco4)c(-c4ccco4)nc3c2)CC1	inactive: 4.1%
O=C1CS/C(=N/N=C/c2ccco2)N1Cc1ccc(F)cc1	inactive: -1.3%
COCC(C)NC(=O)C(C)N1c2cccc3cccc(c23)S1(=O)=O (stereo unspecified)	inactive: 1.5%
O=C(COC(=O)c1cc(S(=O)(=O)N2CCCCC2)ccc1N1CCOCC1)c1ccc(Cl)cc1	inconclusive: -0.2%
CC(C)Nc1nc2nonc2nc1Nc1ccccc1	inconclusive: 1.1%
CCc1cc(/C(Cc2ccccn2)=N\O)c(O)cc1O	inconclusive: -10.1%
CN(C)c1ccc(C=c2c3ccccc3n3c2c2ccccc2[n+]3C)cc1	inconclusive: 34.2%
O=C(OCCN1C(=O)c2cccc3c(N4CCOCC4)ccc(c23)C1=O)c1ccc(Cl)cc1Cl	active: 51.3%
Cc1nc2ccccn2c(=O)c1NC(=O)COc1ccccc1	inactive: 0.2%
COc1ccc(C(=O)NC(C)CCc2ccccc2)c(O)c1 (stereo unspecified)	inactive: -1.4%
Cc1ccc(NC(=S)N2CCCCC2)cc1C	inconclusive: -13.2%
CCC(=O)N(CCC1(C(C)C)CCOC(C)(C)C1)C(C)c1cccs1 (stereo unspecified)	inconclusive: -2.5%
Cc1ccc(S(=O)(=O)NCc2ccccc2)cc1C(=O)NCc1ccncc1	inactive: -0.1%
Cc1c(OCc2nn[nH]n2)ccc2c3c(c(=O)oc12)CCC(C)C3 (stereo unspecified)	inconclusive: -1.1%

Copied from the list.
`NNC(=O)CSc1cccc2cccnc12` – inhibition: inactive: 1%
`CN1CCN(Cc2nc3ccccc3c(=O)[nH]2)CC1` – inhibition: inconclusive: 4.4%

The listing continues:

SMILES	inhibition
N/C(=N\OC(=O)c1ccccc1Cl)c1ccccc1	inconclusive: 0.1%
O=C1C2CC=CCC2C(=O)N1c1cccc(OS(=O)(=O)c2ccc3ccccc3c2)c1 (stereo unspecified)	inconclusive: 1.8%
CCOC(=O)c1ccc(NS(=O)(=O)c2c(C)n[nH]c2C)cc1	inconclusive: -3.2%
COc1cc(-c2nnc3sc(-c4ccco4)nn23)cc(OC)c1OC	inconclusive: -3.8%
O=S1(=O)CC(NCc2ccccc2)C(Nc2ccccc2)C1 (stereo unspecified)	inconclusive: -2.3%
CNc1nc(SC(C)C(=O)Nc2ccc(Cl)c(Cl)c2)nc(N2CCOCC2)n1 (stereo unspecified)	inactive: 0%
O=C(CNC(=O)c1ccccc1F)NC1CC1	inconclusive: 1.7%
CCC(C)NC(=O)CN(c1ccc(Cl)c(Cl)c1)S(C)(=O)=O (stereo unspecified)	inactive: -1.1%
Cc1ccccc1N=Cc1ccc[nH]1	inactive: 0.5%
O=C(c1ccc(Cl)c([N+](=O)[O-])c1)N1CCN(Cc2ccc3c(c2)OCO3)CC1	inactive: -1.6%
Cc1cccc(-c2nc(CS(=O)CC(=O)NCCCSC3CCCCC3)c(C)o2)c1 (stereo unspecified)	inconclusive: 0.4%
CCS(=O)c1scc(-c2ccc(Cl)cc2)c1C#N (stereo unspecified)	inconclusive: -40.6%
O=C(c1sc2ccccc2c1Cl)N(Cc1ccco1)C1CCS(=O)(=O)C1 (stereo unspecified)	inconclusive: -2.3%
O=C(NC(Cc1ccccc1)C(=O)O)c1ccc(S(=O)(=O)N2CCOCC2)cc1 (stereo unspecified)	inactive: 0.2%
COc1ccc(CCN(C)C(=S)Nc2cccc(C)c2)cc1OC	inactive: 9.2%
Cc1ccc(NC(=O)c2cccs2)cc1NC(=O)c1ccco1	inconclusive: -0.4%
O=C(NCc1ccc(F)cc1)C1CCCN(C(=O)Nc2ccccc2)C1 (stereo unspecified)	inconclusive: 1%
Cc1ccc(S(=O)(=O)NNc2ccccc2)cc1	inconclusive: -0.5%
CN(C)C(=O)C1CC(=O)OC12CCCCC2 (stereo unspecified)	inconclusive: -41.6%
COc1ccc(S(=O)(=O)N2CCOCC2)cc1NC(=O)CCCSc1ccccc1	inactive: -0.3%
O=c1c2cc(N3CCOCC3)ccc2[nH]c(=S)n1CCCN1CCCCCC1	inconclusive: 2.2%
CCN(CC(=O)Nc1ccccc1OC)C(=O)C1CCCC1	inconclusive: -2.4%
O=C(c1ccc(S(=O)(=O)c2ccc(Cl)cc2)cc1)N1CCOCC1	inactive: -2.1%

Quoted from the entries so far for reference:
SMILES	inhibition
COC(=O)C(C)Oc1ccc2c(-c3cccc([N+](=O)[O-])c3)cc(=O)oc2c1 (stereo unspecified)	inconclusive: 3.7%
CCn1c(NC(=O)c2cccs2)c(-c2cccs2)c(=O)c2ccccc21	inconclusive: 4.7%

(further entries)

SMILES	inhibition
CCOC(=O)c1[nH]c2cc3c(cc2c1NC(=O)CN1CCC(C)CC1)OCO3	inactive: 0.7%
O=C(NCc1cccnc1)c1cnc2ccccc2n1	inconclusive: 2.4%
O=C(CSCC(=O)N1CCCCC1)OCC(=O)c1c[nH]c2ccccc12	active: 33.2%
COc1cc(CCC(=O)OCC(=O)NCCc2ccc(S(N)(=O)=O)cc2)cc(OC)c1OC	inactive: -0.4%
O=C(Oc1c(-c2ccccc2)c(=O)n2c3c(cccc13)CC2)c1ccc(F)cc1	inconclusive: 0.1%
COc1ccc(NC(=O)C(C)N2C(=O)c3ccccc3S2(=O)=O)c(OC)c1 (stereo unspecified)	inconclusive: 9.6%
COc1ccc(Oc2nc(-c3cccnc3)nc3ccccc23)cc1	inconclusive: -8.2%
Cc1ccc2c(c1)c1c3n2CCCN(Cc2ccccc2)C3CCC1 (stereo unspecified)	inconclusive: -2.6%
CN1/C(=C\C(=S)NC(=O)c2ccccc2Cl)C(C)(C)c2ccccc21	active: 38.3%
CCOC(=O)C1=C(COC(=O)COc2ccc(C(C)=O)cc2)NC(=O)NC1C (stereo unspecified)	inconclusive: -2.9%
CC1CCN(c2nc3c(c(=O)n(C)c(=O)n3C)n2CCSc2nc3ccccc3s2)CC1	inactive: 0%
COC(=O)CSc1nnc(-c2ccc(S(=O)(=O)NCc3cccs3)cc2)o1	inactive: 2.3%
Cc1cc(OCC(=O)OC(C)C)c2c3c(c(=O)oc2c1)CCCC3	inactive: -0.2%
COc1cccc(/C=C/C(=O)OCC(=O)c2c[nH]c3ccccc23)c1OC	active: 39.1%
O=C(Cn1cncn1)NCc1ccccc1Br	inconclusive: 0%
CCN1/C(=C/c2ccc3cc(C)ccc3[n+]2CC)Sc2cc(C)ccc21	active: 54.7%
CN(C)c1oc(-c2ccccc2[N+](=O)[O-])nc1C#N	inconclusive: -6%
COc1ccc(C(=O)CSc2nnc(C3CC3)n2N)cc1	inconclusive: 1.8%
N=c1c2c(n(Cc3ccc(Cl)cc3)c3c1CCC3)CCC2	inactive: -1.5%
CC(Sc1nnnn1-c1ccc(O)cc1)C(=O)NC1CCCCC1C (stereo unspecified)	inconclusive: -25.6%
Cc1ccc(OCC(=O)O/N=C(\N)c2cccc([N+](=O)[O-])c2)cc1C	inconclusive: -18.7%
COc1ccc2[nH]c3c(=O)n(CCCCC(=O)N4CCC(C(N)=O)CC4)c(=S)[nH]c3c2c1	inconclusive: 3.8%
